In publication PMC12556802, “Rules of engagement: Determinants of chemokine receptor activation and selectivity by CCL27 and CCL28” (The Journal of Biological Chemistry, 2025):
Results are given in words; binding and its absence hold for the method and conditions named. For some assays here: In cells and extracts the contact can be indirect. Some binding calls cover weakened binding; strength is not graded here. For some assays here: Sequences can lack the tags named with a protein.

Amino acid sequences for entries named in this document (tags omitted). Residues count along the entry.
UniProt P80098, residues 24-99: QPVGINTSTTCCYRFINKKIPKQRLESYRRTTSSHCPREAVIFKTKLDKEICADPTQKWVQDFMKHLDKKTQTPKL
UniProt P32121: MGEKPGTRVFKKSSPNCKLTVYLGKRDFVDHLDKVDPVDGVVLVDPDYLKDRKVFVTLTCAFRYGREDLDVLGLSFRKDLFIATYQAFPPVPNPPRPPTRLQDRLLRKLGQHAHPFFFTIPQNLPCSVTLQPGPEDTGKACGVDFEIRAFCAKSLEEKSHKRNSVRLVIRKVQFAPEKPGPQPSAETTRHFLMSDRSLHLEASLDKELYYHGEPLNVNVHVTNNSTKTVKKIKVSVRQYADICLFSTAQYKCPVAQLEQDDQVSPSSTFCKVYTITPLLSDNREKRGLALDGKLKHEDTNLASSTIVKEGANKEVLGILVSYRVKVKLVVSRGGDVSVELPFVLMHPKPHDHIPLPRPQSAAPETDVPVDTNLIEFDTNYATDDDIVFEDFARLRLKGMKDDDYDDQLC

What was measured:
[1] = molecular target: T1, CC chemokine receptor 3 (CCR3) on L1.2 cells (human) (UniProt P51677); assay: flow cytometry on cells; competition on L1.2/CCR3 cells (CCR3 induced with 5 mM sodium butyrate for ~22 h): 250 nM CCL7-HA alone or with a 4-fold excess of competing ligand (1000 nM), 30 min on ice, washed, bound CCL7-HA detected with an anti-HA antibody; only the binder purified
T1 sequence: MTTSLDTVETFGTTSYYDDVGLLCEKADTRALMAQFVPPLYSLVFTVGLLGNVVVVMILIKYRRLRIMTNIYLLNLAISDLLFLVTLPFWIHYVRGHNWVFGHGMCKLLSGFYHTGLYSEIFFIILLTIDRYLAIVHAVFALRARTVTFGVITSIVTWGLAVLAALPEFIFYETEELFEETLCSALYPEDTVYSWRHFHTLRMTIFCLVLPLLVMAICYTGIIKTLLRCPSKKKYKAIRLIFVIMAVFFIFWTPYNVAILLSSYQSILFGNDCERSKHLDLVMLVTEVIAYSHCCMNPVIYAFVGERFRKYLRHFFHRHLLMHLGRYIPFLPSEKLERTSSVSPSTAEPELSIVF

CCR10-RlucII = molecular target: T2, CCR10-RlucII (human, UniProt P46092 1-362); assay: FRET or BRET; HEK293 cells transiently transfected with CCR10-RlucII (donor) and βarr2-GFP10 (acceptor), stimulated with varying concentrations of chemokine (CCL27, F-CCL27, NT28-CCL27); Tyrode's buffer, 5 μM Prolume Purple, read every 5 min for 30 min
T2 sequence (looked up): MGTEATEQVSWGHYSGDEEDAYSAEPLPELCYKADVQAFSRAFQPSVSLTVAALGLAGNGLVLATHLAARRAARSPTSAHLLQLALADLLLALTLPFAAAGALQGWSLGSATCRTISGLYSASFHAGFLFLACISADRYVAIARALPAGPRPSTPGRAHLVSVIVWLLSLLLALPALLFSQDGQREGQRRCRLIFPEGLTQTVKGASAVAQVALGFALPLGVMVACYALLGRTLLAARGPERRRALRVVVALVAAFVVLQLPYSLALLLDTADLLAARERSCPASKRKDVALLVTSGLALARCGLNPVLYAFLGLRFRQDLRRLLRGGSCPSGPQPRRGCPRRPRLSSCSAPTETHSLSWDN

Row | Substance | binding [1] | binding (CCR10-RlucII)
1 | C terminally HA-tagged CCL7 (from UniProt P80098 24-99) (ligand) | binds | 
2 | GFP10-tagged β-arrestin2 (from UniProt P32121 1-409) |  | binds
